Test results as given in patent US11279626B2, “Octamethylcyclotetrasiloxane interacts with lithium ions” (Board of Trustees of the California State University, priority 2018, dated 2022).

Test: Lithium ion extraction from aqueous LiCl solutions by cyclosiloxane, aqueous layer and extract analysed by AA flame emission
Conditions: for AA flame emission of aqueous sample, Avg. after: after exposure to D-4; for AA flame emission of aqueous sample, Diff. Avg.: before minus after exposure to D-4

For `C[Si]1(C)O[Si](C)(C)O[Si](C)(C)O[Si](C)(C)O1` [D-4, octamethylcyclotetrasiloxane], the “concentration of D-4/Li^+ complexes within the D-4 phase” value was < 1%, the “AA flame emission of aqueous sample, Avg. after” value (shortened to “AA flame emission … Avg. after”) (0.0001M LiCl) was 51987 and the “AA flame emission … Avg. after” value (0.001M LiCl) was 202437. The “AA flame emission of aqueous sample, Diff. Avg.” value (“AA flame emission … Diff. Avg.” below) (0.001M LiCl) was 666, the “AA flame emission … Avg. after” value (0.01M LiCl) was 138375 and the “AA flame emission … Diff. Avg.” value (0.01M LiCl) was −0.67. The “AA flame emission … Avg. after” value (0.1M LiCl) was 312995, the “AA flame emission … Diff. Avg.” value (0.1M LiCl) was −289 and the “Li^+ ions removed by an extraction” value (Li^+ concentrations close to sea water (10^−5 M), depends on relative volumes and whether D-4 is distilled) was 20-95%. The “D-4 molecules per one Li+ ion extracted” value (based on AA absorptions versus LiCl standard solutions) was ~1000 and the “LiCl yield, calculated amount of lithium recovered” value (single extraction, depends on concentrations and volume ratio of aqueous solution and D-4) was “up to 95%”.

With `C[Si]1(C)O[Si](C)(C)O[Si](C)(C)O[Si](C)(C)O[Si](C)(C)O1` [D-5, decamethylpentacyclosiloxane, reference compound] the “lithium ion concentration in the extract” value (treated with aqueous LiCl, FTIR, 29Si and 13C NMR) was “minimal”.
